# In US6436903B1, “Immunomodulating compounds comprising d-isomers of amino acids” (Stanford University (Board of Trustees of the Leland …, priority 1996, dated 2002):
# At least one peptide structure holds a part that was inferred or is arguable (an end, a ring closure or a residue). Some entries share one result that the patent states for a list of compounds. No end group written: not given here.
# Columns and labels:
# [1] = tested on: Lew specific CTL precursors in splenocytes; assay: Limiting dilution assay for CTL precursors in splenocytes of treated rats; type: in vivo, rat; settings: for decrease in the precursor frequency of Lew specific CTL: treated 7 or 10 days prior to splenectomy; for [CTL precursor frequency]^−1: single iv injection 2 mg, PVG rats, Lew stimulators
# Method: The effect of peptides on CTL precursor frequencies in splenocytes was tested as follows. Limiting dilution analysis was carried out essentially as described (Moeller et al. 1993, supra; Skinner and Marbrook. J. Exp. Med. (1976) 143:1562). Briefly, spleens were removed from naive animals or from animals that had received an allograft a minimum of 60 days earlier and then teased into a single cell suspension. Responder cells were plated from 1000 to 40,000 cells per well (24 replicates per concentration) into round bottom microliter wells in RPMI 1640 supplemented with 10% fetal bovine serum (Hyclone, Logan, Utah), 2 mM L-glutamine, 5×10^5M μ-mercaptoethanol, 100 U/ml penicillin, 100 μg/ml streptomycin, 20% supernatant from Concanavalin A activated rat spleen cells, and 50 μM α-methyl mannoside. Then, 5×10^5 irradiated (2000 rads) stimulator cells were added to each well and plates were incubated in a humidified CO2 incubator. After 5 days, aliquots were removed and tested for lysis of ^51Cr-labeled Concanavalin A activated blasts. Aliquots of supernatant were counted in a gamma counter and CTL precursor frequency determined by linear regression (Skinner and Marbrook. 1976, supra). Wells were considered positive if specific release was >10%.
# PVG (RT1^c) or ACI (RT1^a) rats were treated with a single intravenous injection of saline or 2 mg of A2.75-84, B7.75-84, B2702.75-84, or RT1^a.75-84 peptide. Their spleens were removed on different days after peptide treatment, cultured under limiting dilution conditions for 5 days with irradiated (2000R) splenocytes from Lewis rats; i.e., Lew (RT1^I) stimulator cells, and assayed for lysis of ^51Cr-labeled Lew blasts. CTL precursor frequency was determined by linear regression analysis.
# [2] = tested on: CD8+ CTL line specific for HLA-A2; assay: Cytotoxicity assay: inhibition of lysis by established CTL (51Cr-labeled JY targets); type: cell-based, human; settings: for inhibition of lysis by established CTL: HLA-A2 specific CD8+ CTL, 51Cr-labeled JY targets, peptide 100 μg/ml, 4 h assay; for IC50: HLA-A2 specific CTL, JY targets, read-out: concentration required to achieve 50% inhibition of cytolysis
# Method: CTL assays were performed as described using ^51Cr-labeled EBV transformed B cells expressing the appropriate HLA allele as targets [[…] et al., J. Immunol. (1982) 129:2001]. In the present protocol, a CD8+ CTL line specific for HLA-A2 was tested in the presence of various peptides for lysis of ^51Cr-labeled JY targets. Peptides were added to a final concentration of 100 μg/ml at the initiation of the 4 h assay. Each determination was the mean of triplicate wells.
# [3] = tested on: purified T cells; assay: Proliferation of purified T cells stimulated by immobilized anti-CD3; type: cell-based, human; settings: immobilized anti-CD3 antibody
# Method: PBL were isolated from normal donors by centrifugation over Ficoll-Hypaque. In some cases, T cells were purified from this preparation using the method of Secrist et al. [J Exp. Med. (1993) 178:2123]. Briefly, cells isolated over Ficoll-Hypaque were incubated for 1 hour in Petri dishes. Nonadherent cells were passed over a nylon wool column and the resulting population was >90% CD3+ by FACS analysis. CD8+ CTL lines specific for HLA-A2, B7, B27, B48, or Cw4 were generated and maintained in long-term culture as previously described [Buxton et al., J Exp. Med. (1992) 175:809; Wesley et al., Hum. Immunol. (1993) 36:149]. Jurkat E6-1 and the T cell receptor negative Jurkat, JRT3-T3.5, were obtained from the American Type Culture Collection (ATCC; Rockville, Md.). […]
# 10^5 cells were added to microtiter wells that had been coated with anti-CD3 (Sigma, St. Louis, Mo.) at 5 μg/ml. […] Plates were harvested on a PHD Cell Harvester 24 hours later and [^3H]-thymidine incorporation determined by scintillation counting.
# Peptides were evaluated for effects on the proliferation of purified T cells stimulated by immobilized anti-CD3 antibody. […]
# [4] = tested on: rat splenocytes; assay: Differentiation of rat splenocytes into allospecific CTL in vitro; type: cell-based
# [5] = tested on: abdominal heterotopic heart allografts; assay: Cardiac allograft survival in rats (Lew heart into ACI recipients); type: in vivo, rat
# Source text: Vascularized cardiac allografts were heterotypically transplanted into the abdomen of recipient rats using a modification of the technique of Ono and Lindsay (Ono and Lindsey J. Thorac. Cardiovasc. Surg. (1969) 57:225). Abdominal allografts were palpated on a daily basis to assess graft function, and rejection was deemed complete when palpable ventricular contractions ceased.
# Cyclosporin A (CsA, Sandoz Pharmaceuticals Corporation, Base, Switzerland) dissolved in olive oil was given orally through a gavage tube at the indicated dose. Peptides were dissolved in water or saline and given intravenously or by gavage as indicated.
# Since the B7.75-84 and B2702.75-84 peptides blocked cellular immunity in vivo, we examined their effects on allograft survival in rats. ACI (RT1^a) recipients were given abdominal heterotopic heart allografts from Lew donors (Moeller et al. 1993, supra; Ono and Lindsey. 1969, supra). Graft function was monitored by daily abdominal palpation, and rejection was scored as complete when the palpable ventricular contractions ceased.
# [6] = tested on: second heart or skin allografts; assay: Donor specificity of tolerance: second heart or skin allografts in rats retaining grafts; type: in vivo, rat
# [7] = tested on: thymus and spleen cells; assay: Immunologic parameters in peptide treated or tolerant rats
# [8] = tested on: CTL cell line AJY; assay: Cytotoxicity assay with CTL line AJY and JY target cells (substitution with D-amino acids); type: cell-based, human
# [9] = tested on: PBL from normal donors; assay: Proliferation of Con A-stimulated PBL (3H-thymidine incorporation); type: cell-based, human; settings: approximate, peptide purity not established
# [10] = tested on: CD8+ CTL line specific for HLA-A2; settings: previously shown (Clayberger et al. 1993); cited from earlier work
# [11] = tested on: Graft Versus Host Disease; assay: Murine model of Graft Versus Host Disease (GVHD); type: in vivo, mice
substance,measurement,setting,value
"B2702.75-84: synthetic peptide, HLA-B2702 residues 75-84, sequence RENLRIALRY [Peptide B2702.75-84]",decrease in the precursor frequency of Lew specific CTL,[1],8-10 fold
RESLRNLRGY [Peptide B7.75-84],inhibition of lysis by established CTL,[2],did not inhibit CTL-mediated lysis at any concentration tested
same,inhibition of proliferation of purified T cells (3H-thymidine incorporation),[3],do not
same,blocking of differentiation of rat splenocytes into allospecific CTL,[4],blocked the differentiation of rat splenocytes into allospecific CTL in vitro
same,[CTL precursor frequency]^−1,[1]; 0 days after peptide injection,"55,467"
same,[CTL precursor frequency]^−1,[1]; 1 day after peptide injection,"55,467"
same,[CTL precursor frequency]^−1,[1]; 7 days after peptide injection,"567,004"
same,[CTL precursor frequency]^−1,[1]; 10 days after peptide injection,"634,983"
same,frequency of Lew specific CTL precursors in splenocytes (1 in),[1]; ACI rats that had maintained a Lewis heart allograft for more than 100 days,"98,646"
same,decrease in the precursor frequency of Lew specific CTL,[1],8-10 fold
same,precursor frequency of Lew specific cells compared with saline,[1]; treated on the day of splenectomy or 24 hours earlier,The same frequency
same,animals that retained their grafts for >200 days,[5]; 20 mg peptide on days −7 and −1 plus CsA on days 0-4,4/8
same,day by which all rats rejected their grafts,[5]; 20 mg peptide on days −7 and −1 plus single dose of CsA on day 2,≤ 16 days
same,rats that retained their grafts indefinitely (>200 days),[5]; 4 treatments with 10 mg peptide in the two weeks before surgery plus single dose of CsA two days after surgery,4 of 7
same,rats that retained their grafts for >200 days,[5]; peptide and CsA concomitantly on days 0-4 after transplantation,7/11
same,"graft rejection, oral peptide alone","[5]; peptide given orally, no CsA",rejected their grafts with normal kinetics
same,animals that maintained their grafts for >200 days,[5]; peptide orally on days 0-4 after surgery plus CsA on days 0-4,9/12
same,animals that maintained their grafts for >200 days,"[5]; peptide orally on days −14, −12, −10 and −7 plus CsA on days 0-4",8/12
same,fate of subsequent skin allografts from donor and third party,[6]; rats that retained cardiac allografts after oral peptide plus CsA,rejected the third party grafts but not the donor skin grafts
same,fate of second heart graft from the same strain as the original donor,"[6]; rats tolerant after peptide plus CsA, no further treatment, n=3",accepted the second allograft indefinitely
same,day by which second heart allograft from Brown Norway (BN) donors was rejected,"[6]; rats tolerant after peptide plus CsA, no further treatment, n=4",≤ 14 day
same,day by which BN skin grafts were rejected,"[6]; rats with heart grafts >100 days, no additional peptide or CsA, n=4",≤ 11 days
same,absolute number of cells or percentage of CD4+ and CD8+ subsets in thymus or spleen,"[7]; peptide treated versus naive rats, FACS",no differences
same,mitogen or alloantigen induced proliferation of spleen cells,[7]; spleen cells from peptide treated rats,identical to that of controls
WDRETQICKAKAQTDRENLRIALRY [Peptide B2702.60-84],IC50,[2],~3 µM
same,% Specific Lysis,"[8]; peptide conc 25 μg/ml, cell ratio 1:1",24.9%
same,% Specific Lysis,"[8]; peptide conc 25 μg/ml, cell ratio 10:1",38.0%
same,% Specific Lysis,"[8]; peptide conc 100 μg/ml, cell ratio 1:1",15.7%
same,% Specific Lysis,"[8]; peptide conc 100 μg/ml, cell ratio 10:1",35.7%
same,% Specific Lysis,"[8]; peptide conc 200 μg/ml, cell ratio 1:1",11.5%
same,% Specific Lysis,"[8]; peptide conc 200 μg/ml, cell ratio 10:1",26.8%
same,CPM ± SD (3H-thymidine incorporation),"[9]; peptide conc 50 μg/ml, Con A conc 1 mg/ml","13,886 ± 2659 CPM"
same,CPM ± SD (3H-thymidine incorporation),"[9]; peptide conc 50 μg/ml, Con A conc 3 mg/ml","45,292 ± 1947 CPM"
same,CPM ± SD (3H-thymidine incorporation),"[9]; peptide conc 200 μg/ml, Con A conc 1 mg/ml","12,217 ± 879 CPM"
same,CPM ± SD (3H-thymidine incorporation),"[9]; peptide conc 200 μg/ml, Con A conc 3 mg/ml","43,487 ± 2269 CPM"
same,inhibits lysis by established CTL,[10],inhibits lysis by established CTL
YRLAIRLNERRENLRIALRY [B2702.84-75/75-84],inhibition of lysis by established CTL,[2],completely inhibited cytolysis
same,IC50,[2],~3 µM
same,inhibition of proliferation of purified T cells (3H-thymidine incorporation),[3],inhibits this proliferation
same,evidence of GVHD after 35 days of treatment,[11]; 100 μg/mouse/ip daily for 35 days,did not evidence GVHD
same,GVHD in the following 20 days,[11]; after end of 35 days treatment,"some of these mice, however, developed GVHD"
